Results as given in the supplement of paper PMC4604168 (melanoma cell lines).
Some of the results follow. Single values are uncertain, as repeats are few or missing.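 The apoptosis fraction was the count of cleaved-PARP antibody-stained nuclei relative to all DNA-stained nuclei, imaged in 1,536-well plates. Screening doses were set so most cells survived, and baseline and induced cleaved-PARP levels vary greatly across cell lines.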

Tests used:
Experiment in all cases: cleaved PARP positive nuclei fraction relative to DMSO control; melanoma cells; higher = more apoptosis
Settings in all cases: library dose: low library concentration; 72 h
501Mel = tested on: 501Mel
A101D = tested on: A101D
A2058 = tested on: A2058
C32 = tested on: C32
CBRC008 = tested on: CBRC008 (line from a melanoma biopsy)
CBRC014 = tested on: CBRC014 (line from a melanoma biopsy)
CBRC016 = tested on: CBRC016 (line from a melanoma biopsy)
CBRC017 = tested on: CBRC017 (line from a melanoma biopsy)
COLO792 = tested on: COLO792
COLO800 = tested on: COLO800
COLO829 = tested on: COLO829
G361 = tested on: G361
IPC-298 = tested on: IPC-298
IST-MEL1 = tested on: IST-MEL1
LB2518-MEL = tested on: LB2518-MEL
LOXIMVI = tested on: LOXIMVI
A375 = tested on: A375
CBRC013 = tested on: CBRC013 (line from a melanoma biopsy)
MEL-HO = tested on: MEL-HO

Row | SMILES | cleaved PARP positive nuclei fraction (501Mel) [%] | cleaved PARP positive nuclei fraction (A101D) [%] | cleaved PARP positive nuclei fraction (A2058) [%] | cleaved PARP positive nuclei fraction (C32) [%] | cleaved PARP positive nuclei fraction (CBRC008) [%] | cleaved PARP positive nuclei fraction (CBRC014) [%] | cleaved PARP positive nuclei fraction (CBRC016) [%] | cleaved PARP positive nuclei fraction (CBRC017) [%] | cleaved PARP positive nuclei fraction (COLO792) [%] | cleaved PARP positive nuclei fraction (COLO800) [%] | cleaved PARP positive nuclei fraction (COLO829) [%] | cleaved PARP positive nuclei fraction (G361) [%] | cleaved PARP positive nuclei fraction (IPC-298) [%] | cleaved PARP positive nuclei fraction (IST-MEL1) [%] | cleaved PARP positive nuclei fraction (LB2518-MEL) [%] | cleaved PARP positive nuclei fraction (LOXIMVI) [%] | cleaved PARP positive nuclei fraction (A375) [%] | cleaved PARP positive nuclei fraction (CBRC013) [%] | cleaved PARP positive nuclei fraction (MEL-HO) [%]
1 | Nc1ccn([C@@H]2O[C@H](CO)[C@@H](O)C2(F)F)c(=O)n1 [gemcitabine] + CCCCCCCCCCCC1=C(O)C(=O)C=C(O)C1=O [Embelin] (first compound 0.0004 µM, partner dose 1.2 µM) | 125 | 43.4 | 39.3 | 27 | 165 | 141 | 31.3 | 94.9 | 66.3 | 104 | 118 | 115 | 49.2 | 142 | 68.9 | 75.8 |  |  | 
2 | O=C(O)c1ccc2c(c1)nc(Nc1cccc(Cl)c1)c1ccncc12 + O=S(=O)(c1ccccc1)N(CC(F)(F)F)c1ccc(C(O)(C(F)(F)F)C(F)(F)F)cc1 [T0901317] (first compound 0.4 µM, partner dose 1.4 µM) | 247 | 10.3 | 290 | 378 | 37.6 | 151 | 71.2 | 149 | 98.2 | 83.7 | 53.2 | 147 | 141 | 52.7 | 90 | 211 |  |  | 
3 | Cn1c(=O)n(-c2ccc(C(C)(C)C#N)cc2)c2c3cc(-c4cnc5ccccc5c4)ccc3ncc21 + CCc1ccc(CCOc2ccc(CC3SC(=O)NC3=O)cc2)nc1 [pioglitazone] (first compound 0.004 µM, partner dose 2 µM) | 62.5 | 16.3 | 126 | 116 | 152 | 100 | 91.6 | 114 | 72.6 | 86.8 | 92.8 | 136 | 85.5 | 212 | 43.9 | 259 |  |  | 
4 | CC(C)C[C@H](NC(=O)[C@H](Cc1ccccc1)NC(=O)c1cnccn1)B(O)O [Bortezomib] + O=S(=O)(c1ccccc1)N(CC(F)(F)F)c1ccc(C(O)(C(F)(F)F)C(F)(F)F)cc1 [T0901317] (first compound 0.001 µM, partner dose 1.4 µM) | 151 | 244 | 159 | 82.1 | 2350 | 290 | 455 | 350 | 74.1 | 186 | 214 | 1370 | 160 | 170 | 619 | 378 |  |  | 
5 | Nc1nc(F)nc2c1ncn2[C@@H]1O[C@H](CO)[C@@H](O)[C@@H]1O [fludarabine] + CCc1ccc(CCOc2ccc(CC3SC(=O)NC3=O)cc2)nc1 [pioglitazone] (first compound 0.2 µM, partner dose 2 µM) | 882 | 42.8 | 75.7 | 105 | 39.2 | 82.2 | 65.7 | 85.3 | 118 | 117 | 61.7 | 82 | 96.8 | 43.5 | 77.4 | 89.6 |  |  | 
6 | CS(=O)(=O)CCNCc1ccc(-c2ccc3ncnc(Nc4ccc(OCc5cccc(F)c5)c(Cl)c4)c3c2)o1 [lapatinib] + COc1cc(Nc2ncc(F)c(Nc3ccc4c(n3)NC(=O)C(C)(C)O4)n2)cc(OC)c1OC [Tamatinib] (first compound 0.8 µM, partner dose 0.4 µM) |  | 55.1 | 66.1 | 95 | 195 | 86.8 | 98.7 | 115 | 209 | 41.1 | 148 | 176 | 116 | 84 |  | 52.9 | 116 | 70.9 | 102
7 | Nc1ccn([C@@H]2O[C@H](CO)[C@@H](O)C2(F)F)c(=O)n1 [gemcitabine] + COc1cc(N2CCC(N3CCN(C)CC3)CC2)ccc1Nc1ncc(Cl)c(Nc2ccccc2S(=O)(=O)C(C)C)n1 [NVP-TAE684] (first compound 0.0004 µM, partner dose 0.08 µM) | 62.4 | 18.1 | 291 | 131 | 285 | 149 | 88.2 | 110 | 140 | 99.4 | 62.2 | 54.6 | 147 | 231 | 34.3 | 33.9 |  |  | 
8 | CC(C)C[C@H](NC(=O)[C@H](Cc1ccccc1)NC(=O)c1cnccn1)B(O)O [Bortezomib] + Cn1cc(/C=C2\C(=O)Nc3cccnc32)c2ccccc21 [GW441756] (first compound 0.001 µM, partner dose 0.4 µM) | 193 | 105 | 128 | 122 | 376 | 370 | 1170 | 94.7 | 49.8 | 18.2 | 148 | 3770 | 152 | 140 | 948 | 116 |  |  | 
9 | Nc1ncn([C@H]2C[C@H](O)[C@@H](CO)O2)c(=O)n1 [decitabine] + Cn1cncc1[C@@](N)(c1ccc(Cl)cc1)c1ccc2c(c1)c(-c1cccc(Cl)c1)cc(=O)n2C [tipifarnib] (first compound 0.1 µM, partner dose 0.01 µM) |  | 82.6 | 156 | 74.9 | 170 | 88 | 37.9 | 133 | 90.3 | 99.5 | 124 | 73.7 | 540 | 309 |  | 116 | 124 | 102 | 211

Just cleaved PARP positive nuclei fraction (LOXIMVI) [%] (two entries from above):
Row	SMILES	cleaved PARP positive nuclei fraction (LOXIMVI) [%]
5	Nc1nc(F)nc2c1ncn2[C@@H]1O[C@H](CO)[C@@H](O)[C@@H]1O [fludarabine] + CCc1ccc(CCOc2ccc(CC3SC(=O)NC3=O)cc2)nc1 [pioglitazone] (first compound 0.2 µM, partner dose 2 µM)	89.6
6	CS(=O)(=O)CCNCc1ccc(-c2ccc3ncnc(Nc4ccc(OCc5cccc(F)c5)c(Cl)c4)c3c2)o1 [lapatinib] + COc1cc(Nc2ncc(F)c(Nc3ccc4c(n3)NC(=O)C(C)(C)O4)n2)cc(OC)c1OC [Tamatinib] (first compound 0.8 µM, partner dose 0.4 µM)	52.9
